Results are given in words; binding and its absence hold for the method and conditions named. In cells and extracts the contact can be indirect. Some entries that bind do so weakly or less than the wild type.
B1: centrosomal protein 55 (protein, UniProt Q53EZ4 1-464)
chain: MSSRSTKDLIKSKWGSKPSNSKSETTLEKLKGEIAHLKTSVDEITSGKGKLTDKERHRLLEKIRVLEAEKEKNAYQLTEKDKEIQRLRDQLKARYSTTTLLEQLEETTREGERREQVLKALSEEKDVLKQQLSAATSRIAELESKTNTLRLSQTVAPNCFNSSINNIHEMEIQLKDALEKNQQWLVYDQQREVYVKGLLAKIFELEKKTETAAHSLPQQTKKPESEGYLQEEKQKCYNDLLASAKKDLEVERQTITQLSFELSEFRRKYEETQKEVHNLNQLLYSQRRADVQHLEDDRHKTEKIQKLREENDIARGKLEEEKKRSEELLSQVQFLYTSLLKQQEEQTRVALLEQQMQACTLDFENEKLDRQHVQHQLHVILKELRKARNQITQLESLKQLHEFAITEPLVTFQGETENREKVAASPKSPTAALNESLVECPKCNIQYPATEHRDLLVHVEYCSK

The chains behind the UniProt entries cited, without tags or fusion partners.
UniProt P35221: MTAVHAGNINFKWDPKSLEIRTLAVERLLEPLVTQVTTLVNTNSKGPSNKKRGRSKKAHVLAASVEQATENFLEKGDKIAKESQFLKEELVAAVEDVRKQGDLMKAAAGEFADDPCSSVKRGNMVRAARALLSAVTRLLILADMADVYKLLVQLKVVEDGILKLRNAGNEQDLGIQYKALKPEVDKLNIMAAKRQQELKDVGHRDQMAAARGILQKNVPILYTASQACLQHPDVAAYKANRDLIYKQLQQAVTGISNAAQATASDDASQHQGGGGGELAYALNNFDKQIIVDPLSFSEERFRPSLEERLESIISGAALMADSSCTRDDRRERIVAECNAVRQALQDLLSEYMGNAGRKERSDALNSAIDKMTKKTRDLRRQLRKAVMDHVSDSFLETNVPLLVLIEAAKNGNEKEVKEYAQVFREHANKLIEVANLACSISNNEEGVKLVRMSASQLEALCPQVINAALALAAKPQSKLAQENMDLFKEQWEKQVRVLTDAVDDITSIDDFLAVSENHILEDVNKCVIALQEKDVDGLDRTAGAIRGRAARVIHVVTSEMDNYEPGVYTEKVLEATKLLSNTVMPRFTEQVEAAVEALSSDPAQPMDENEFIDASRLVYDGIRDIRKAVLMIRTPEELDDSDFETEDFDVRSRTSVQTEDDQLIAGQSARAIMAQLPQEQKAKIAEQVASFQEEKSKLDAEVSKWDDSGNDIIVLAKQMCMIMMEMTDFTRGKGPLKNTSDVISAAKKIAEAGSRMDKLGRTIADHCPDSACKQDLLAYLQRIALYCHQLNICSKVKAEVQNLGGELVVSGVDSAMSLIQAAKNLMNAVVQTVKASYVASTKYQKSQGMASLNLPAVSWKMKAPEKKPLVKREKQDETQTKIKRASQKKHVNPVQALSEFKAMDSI
UniProt Q9NR12: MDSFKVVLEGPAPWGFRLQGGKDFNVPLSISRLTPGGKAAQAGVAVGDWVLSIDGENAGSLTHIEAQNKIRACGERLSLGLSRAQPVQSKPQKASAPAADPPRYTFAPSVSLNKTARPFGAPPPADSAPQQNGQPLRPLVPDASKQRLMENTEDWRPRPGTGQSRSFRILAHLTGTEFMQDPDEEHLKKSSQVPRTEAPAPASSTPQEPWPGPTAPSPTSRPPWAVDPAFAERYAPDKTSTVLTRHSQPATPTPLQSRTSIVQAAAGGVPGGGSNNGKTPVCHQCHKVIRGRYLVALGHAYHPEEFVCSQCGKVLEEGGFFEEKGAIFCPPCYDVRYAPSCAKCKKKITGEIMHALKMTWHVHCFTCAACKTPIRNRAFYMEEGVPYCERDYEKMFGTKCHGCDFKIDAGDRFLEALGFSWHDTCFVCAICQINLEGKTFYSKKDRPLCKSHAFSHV

Legend:
[1] = biological target: α‐catenin (human (endogenous in HLF and Hep3B)) (UniProt P35221); assay: proximity ligation; DuoLink in situ PLA on fixed, permeabilised HLF and Hep3B cells with α-catenin/CEP55 and α-catenin/PDLIM7 antibody combinations; single antibodies as negative controls
[2] = biological target: Flag-tagged human α‐catenin (human) (UniProt P35221); assay: co-IP; extracts of HLF cells transfected with Flag-tagged human α-catenin, harvested 48 h after transfection; antibody on Dynabeads Protein G, 4°C overnight; detection by Western immunoblotting

binding [1]	binding [2]	Molecule
binds	binds	PDZ and LIM domain 7 (from UniProt Q9NR12 1-457)
binds	binds	B1

— article PMC10304383
